At least one compound was matched to its structure with a doubt left.
System: Medalist fibroblasts
Experiment: VEGF protein secreted to the medium (ELISA)
Type: cell-based, human
Conditions: 100 nM insulin in presence of 100 nM wortmanin or 10 μM PD98059
Description: Skin were obtained from 26 Medalists with various complications and from 7 age-matched non-diabetic controls during post-mortem period. Primary fibroblast cultures were derived from human skin samples, sustained in DMEM (10-027, Cellgro Inc.) supplemented with 10% heat inactivated fetal bovine serum, over a period of 4 weeks, in a 6-well plate, with media supplementation every other day. Subsequently, as fibroblasts emerged from the primary explant, a brief trypsinization (0.25% Trypsin) was used to separate and further expand the cells in a 10 cm^2 plate. In all experiments fibroblasts were used between passages 2-5.
Fibroblasts with passage≦5 were grown and expanded in 10 cm plate with DMEM supplemented with 10% FBS. […] Cells were lysed and protein amounts were measured with BCA kit (Bio-Rad, Hercules, Calif.). Protein lysates (20-30 μg) were separated by SDS-PAGE, transferred, blocked and detected as we described before (Park et al., Mol Cell Biol. 2013 August; 33(16):3227-41). The signal intensity was quantified using ImageJ software (SynGene, Frederick, Md.). […]
Protein levels of VEGF in the medium were measured using Quantikine R&D System kit (Minneapolis, Minn.). […] Glycated hemoglobin (HbA1c) was determined by HPLC (Tosoh G7 and 2.2, Tokyo, Japan). Serum creatinine was determined by spectrophotometry. Urine albumin and creatinine were determined by turbidimetric methods. […]

With COC[C@H]1OC(=O)c2coc3c2[C@@]1(C)C1=C(C3=O)[C@@H]2CCC(=O)[C@@]2(C)C[C@H]1OC(C)=O [Wortmanin, wortmannin] the “insulin-stimulated VEGF production” value was “significantly inhibited”.
